# Assay results: publication PMC9545041
# Protein sequences, listed by entry. Tags and fused reporters are not part of them.
# UniProt O75030: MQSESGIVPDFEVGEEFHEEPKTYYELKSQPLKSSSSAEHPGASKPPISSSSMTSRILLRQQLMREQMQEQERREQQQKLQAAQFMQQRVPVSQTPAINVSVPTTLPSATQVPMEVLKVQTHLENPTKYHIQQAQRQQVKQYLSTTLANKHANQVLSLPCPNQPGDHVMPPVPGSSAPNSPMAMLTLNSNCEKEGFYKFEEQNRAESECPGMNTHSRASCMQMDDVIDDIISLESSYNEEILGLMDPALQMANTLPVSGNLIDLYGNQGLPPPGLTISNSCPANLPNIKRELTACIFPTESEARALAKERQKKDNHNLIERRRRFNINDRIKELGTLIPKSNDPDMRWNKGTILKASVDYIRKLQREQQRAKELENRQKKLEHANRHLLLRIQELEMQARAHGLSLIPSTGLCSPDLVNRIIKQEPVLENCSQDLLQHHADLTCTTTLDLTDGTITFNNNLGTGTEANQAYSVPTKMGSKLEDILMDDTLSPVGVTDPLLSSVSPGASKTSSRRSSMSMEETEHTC
# UniProt P51784: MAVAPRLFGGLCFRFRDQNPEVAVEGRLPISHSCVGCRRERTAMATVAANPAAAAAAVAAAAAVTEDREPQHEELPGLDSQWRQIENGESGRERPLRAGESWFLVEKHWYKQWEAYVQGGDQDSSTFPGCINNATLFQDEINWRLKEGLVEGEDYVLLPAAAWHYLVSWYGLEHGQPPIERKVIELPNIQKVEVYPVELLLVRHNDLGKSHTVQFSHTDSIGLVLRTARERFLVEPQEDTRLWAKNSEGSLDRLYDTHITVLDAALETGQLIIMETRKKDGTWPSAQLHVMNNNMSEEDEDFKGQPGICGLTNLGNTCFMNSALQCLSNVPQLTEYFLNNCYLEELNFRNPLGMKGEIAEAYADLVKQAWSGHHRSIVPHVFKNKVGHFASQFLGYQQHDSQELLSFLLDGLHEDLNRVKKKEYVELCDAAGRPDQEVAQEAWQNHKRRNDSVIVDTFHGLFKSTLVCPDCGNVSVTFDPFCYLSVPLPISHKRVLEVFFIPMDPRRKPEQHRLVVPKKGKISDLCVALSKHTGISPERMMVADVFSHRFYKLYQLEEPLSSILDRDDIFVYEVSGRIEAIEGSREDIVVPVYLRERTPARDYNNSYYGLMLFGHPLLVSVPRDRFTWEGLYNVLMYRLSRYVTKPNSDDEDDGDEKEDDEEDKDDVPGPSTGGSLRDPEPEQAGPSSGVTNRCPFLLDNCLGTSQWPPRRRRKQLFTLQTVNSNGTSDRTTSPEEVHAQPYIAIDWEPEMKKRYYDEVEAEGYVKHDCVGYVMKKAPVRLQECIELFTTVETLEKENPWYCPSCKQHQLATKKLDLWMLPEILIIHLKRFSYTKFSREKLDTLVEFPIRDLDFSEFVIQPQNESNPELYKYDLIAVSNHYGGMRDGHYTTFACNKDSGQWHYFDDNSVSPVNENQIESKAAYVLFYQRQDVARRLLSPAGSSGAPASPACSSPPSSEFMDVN
# UniProt P05412: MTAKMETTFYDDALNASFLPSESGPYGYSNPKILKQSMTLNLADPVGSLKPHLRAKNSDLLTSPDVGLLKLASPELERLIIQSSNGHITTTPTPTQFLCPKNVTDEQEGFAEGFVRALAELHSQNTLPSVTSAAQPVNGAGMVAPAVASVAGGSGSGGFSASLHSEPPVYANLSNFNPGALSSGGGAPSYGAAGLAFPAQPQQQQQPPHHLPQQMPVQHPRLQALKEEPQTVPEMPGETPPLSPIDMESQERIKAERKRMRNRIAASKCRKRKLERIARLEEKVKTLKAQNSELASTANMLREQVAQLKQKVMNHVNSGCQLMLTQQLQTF
# UniProt P51532: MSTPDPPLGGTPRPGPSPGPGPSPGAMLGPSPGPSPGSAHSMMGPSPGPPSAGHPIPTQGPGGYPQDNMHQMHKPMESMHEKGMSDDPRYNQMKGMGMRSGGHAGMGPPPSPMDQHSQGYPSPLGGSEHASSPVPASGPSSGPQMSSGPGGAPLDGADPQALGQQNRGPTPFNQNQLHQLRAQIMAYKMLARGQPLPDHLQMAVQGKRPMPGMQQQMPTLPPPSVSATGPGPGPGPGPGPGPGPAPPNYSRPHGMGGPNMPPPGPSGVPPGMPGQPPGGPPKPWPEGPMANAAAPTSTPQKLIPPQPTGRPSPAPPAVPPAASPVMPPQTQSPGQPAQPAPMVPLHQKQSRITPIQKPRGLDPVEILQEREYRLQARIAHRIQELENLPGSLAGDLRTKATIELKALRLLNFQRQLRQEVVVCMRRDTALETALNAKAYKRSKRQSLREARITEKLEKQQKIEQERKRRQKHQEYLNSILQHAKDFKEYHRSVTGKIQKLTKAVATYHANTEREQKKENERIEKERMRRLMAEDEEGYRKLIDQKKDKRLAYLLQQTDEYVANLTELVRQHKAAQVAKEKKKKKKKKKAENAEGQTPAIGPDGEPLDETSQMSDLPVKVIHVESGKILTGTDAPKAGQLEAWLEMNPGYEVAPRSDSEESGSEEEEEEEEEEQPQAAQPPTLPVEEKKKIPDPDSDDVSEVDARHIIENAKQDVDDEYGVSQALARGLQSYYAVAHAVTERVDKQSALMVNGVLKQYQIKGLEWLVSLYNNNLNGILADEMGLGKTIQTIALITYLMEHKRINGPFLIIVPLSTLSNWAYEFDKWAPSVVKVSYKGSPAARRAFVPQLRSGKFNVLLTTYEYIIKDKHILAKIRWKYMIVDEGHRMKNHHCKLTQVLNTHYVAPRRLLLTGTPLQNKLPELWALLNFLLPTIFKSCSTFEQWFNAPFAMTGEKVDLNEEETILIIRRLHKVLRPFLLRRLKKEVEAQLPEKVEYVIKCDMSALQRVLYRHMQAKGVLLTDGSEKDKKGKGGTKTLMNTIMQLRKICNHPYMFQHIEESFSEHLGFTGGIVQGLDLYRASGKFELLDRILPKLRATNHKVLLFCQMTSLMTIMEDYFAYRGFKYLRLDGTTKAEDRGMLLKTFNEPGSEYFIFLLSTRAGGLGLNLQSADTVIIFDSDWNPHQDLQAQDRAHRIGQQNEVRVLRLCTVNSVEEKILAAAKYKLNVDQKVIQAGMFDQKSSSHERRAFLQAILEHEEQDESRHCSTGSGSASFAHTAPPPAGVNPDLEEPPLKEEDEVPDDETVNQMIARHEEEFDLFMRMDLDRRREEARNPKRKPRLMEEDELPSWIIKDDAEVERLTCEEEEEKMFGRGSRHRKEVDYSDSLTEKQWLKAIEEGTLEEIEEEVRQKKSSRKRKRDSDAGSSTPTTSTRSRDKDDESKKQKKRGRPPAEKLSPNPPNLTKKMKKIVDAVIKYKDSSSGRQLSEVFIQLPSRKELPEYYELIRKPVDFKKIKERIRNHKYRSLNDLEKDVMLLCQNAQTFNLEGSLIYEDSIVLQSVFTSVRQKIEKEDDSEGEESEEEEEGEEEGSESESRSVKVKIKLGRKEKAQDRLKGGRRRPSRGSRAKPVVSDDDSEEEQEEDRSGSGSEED
# UniProt P19532: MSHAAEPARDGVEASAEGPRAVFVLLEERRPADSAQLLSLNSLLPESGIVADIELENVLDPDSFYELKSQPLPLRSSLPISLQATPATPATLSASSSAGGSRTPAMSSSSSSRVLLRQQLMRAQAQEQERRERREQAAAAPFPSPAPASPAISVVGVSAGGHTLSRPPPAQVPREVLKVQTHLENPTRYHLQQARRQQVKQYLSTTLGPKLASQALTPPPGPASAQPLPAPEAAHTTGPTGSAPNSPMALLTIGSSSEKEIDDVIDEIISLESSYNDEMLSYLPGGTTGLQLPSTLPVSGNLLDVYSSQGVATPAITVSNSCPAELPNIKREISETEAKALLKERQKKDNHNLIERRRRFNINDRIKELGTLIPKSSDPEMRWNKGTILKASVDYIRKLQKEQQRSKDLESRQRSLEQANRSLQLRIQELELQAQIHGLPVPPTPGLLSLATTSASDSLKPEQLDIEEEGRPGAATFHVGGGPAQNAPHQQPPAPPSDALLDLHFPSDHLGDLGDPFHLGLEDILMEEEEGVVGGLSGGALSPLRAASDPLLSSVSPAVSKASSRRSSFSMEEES
# These are yes or no findings as the source states them, for the method shown. Binding seen in cells or lysates may run through a third protein. A yes stands for co-enrichment or nearness to the bait. Other partners may have been found.
# B1: TRIM24 (protein, UniProt O15164 1-1050)
# chain: MEVAVEKAVAAAAAASAAASGGPSAAPSGENEAESRQGPDSERGGEAARLNLLDTCAVCHQNIQSRAPKLLPCLHSFCQRCLPAPQRYLMLPAPMLGSAETPPPVPAPGSPVSGSSPFATQVGVIRCPVCSQECAERHIIDNFFVKDTTEVPSSTVEKSNQVCTSCEDNAEANGFCVECVEWLCKTCIRAHQRVKFTKDHTVRQKEEVSPEAVGVTSQRPVFCPFHKKEQLKLYCETCDKLTCRDCQLLEHKEHRYQFIEEAFQNQKVIIDTLITKLMEKTKYIKFTGNQIQNRIIEVNQNQKQVEQDIKVAIFTLMVEINKKGKALLHQLESLAKDHRMKLMQQQQEVAGLSKQLEHVMHFSKWAVSSGSSTALLYSKRLITYRLRHLLRARCDASPVTNNTIQFHCDPSFWAQNIINLGSLVIEDKESQPQMPKQNPVVEQNSQPPSGLSSNQLSKFPTQISLAQLRLQHMQQQVMAQRQQVQRRPAPVGLPNPRMQGPIQQPSISHQQPPPRLINFQNHSPKPNGPVLPPHPQQLRYPPNQNIPRQAIKPNPLQMAFLAQQAIKQWQISSGQGTPSTTNSTSSTPSSPTITSAAGYDGKAFGSPMIDLSSPVGGSYNLPSLPDIDCSSTIMLDNIVRKDTNIDHGQPRPPSNRTVQSPNSSVPSPGLAGPVTMTSVHPPIRSPSASSVGSRGSSGSSSKPAGADSTHKVPVVMLEPIRIKQENSGPPENYDFPVVIVKQESDEESRPQNANYPRSILTSLLLNSSQSSTSEETVLRSDAPDSTGDQPGLHQDNSSNGKSEWLDPSQKSPLHVGETRKEDDPNEDWCAVCQNGGELLCCEKCPKVFHLSCHVPTLTNFPSGEWICTFCRDLSKPEVEYDCDAPSHNSEKKKTEGLVKLTPIDKRKCERLLLFLYCHEMSLAFQDPVPLTVPDYYKIIKNPMDLSTIKKRLQEDYSMYSKPEDFVADFRLIFQNCAEFNEPDSEVANAGIKLENYFEELLKNLYPEKRFPKPEFRNESEDNKFSDDSDDDFVQPRKKRLKSIEERQLLK
# B2: ATF3 (protein, UniProt P18847 1-181)
# chain: MMLQHPGQVSASEVSASAIVPCLSPPGSLVFEDFANLTPFVKEELRFAIQNKHLCHRMSSALESVTVSDRPLGVSITKAEVAPEEDERKKRRRERNKIAAAKCRNKKKEKTECLQKESEKLESVNAELKAQIEELKNEKQHLIYMLNLHRPTCIVRAQNGRTPEDERNLFIQQIKEGTLQS
# Target: BirA*‐FLAG‐MITF (microphthalmia‐associated transcription factor) (UniProt O75030)
# Assay: proximity labelling; BioID: BirA*‐FLAG‐MITF stably expressed in Flp‐In T‐REx HEK293, tetracycline 24 h, biotin 4 h; RIPA lysate, biotinylated proteins captured on streptavidin‐Sepharose, on-bead trypsin, LC-MS/MS; SAINTexpress against NLS‐BirA*‐FLAG controls, 1% FDR
row,binding,Molecule
1,binds,USP11 (from UniProt P51784 1-963)
2,binds,CHD7 (from UniProt Q9P2D1 1-2997)
3,binds,JUN (from UniProt P05412 1-331)
4,binds,SMARCA4 (from UniProt P51532 1-1647)
5,binds,TFE3 (from UniProt P19532 1-575)
6,binds,B1
7,binds,B2
